As usually defined, the AC50 is the concentration giving half of the maximal activity seen.

The values that follow come from PubChem BioAssay AID1487 (National Center for Advancing Translational Sciences (NCATS), 2009).

Some of the results follow. The main result of the screen is listed elsewhere. These columns were measured beside it and carry no call. The list favours compounds with an active or inconclusive main result. Potencies come from curve fits of mixed quality, noted in brackets.

This assay in a line: qHTS Assay for Modulators of Lamin A Splicing. As to conditions: HeLa LMNA splicing GFP/RFP minigene ratio, 48 h. The procedure, abridged:
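S3 HeLa stable clones carrying a lamin A-EGFP splicing minigene plus DsRed2 were seeded at 600 cells/well in Opti-MEM with 2% FBS, pin-dosed and incubated 48 h at 37°C. Acumen cytometry (488 nm) gave the GFP/RFP total-intensity ratio.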
A general note: In qHTS, concentration-response curves come from the screen itself.

The mark [1] stands for this setting: measured here: GFP splicing reporter channel.
The mark [2] stands for this setting: measured here: RFP viability control channel.

For the molecule `Cc1ccc(-n2ncc(C(=O)NCCN3CCC(Cc4ccccc4)CC3)c2C2CCN(C(=O)OC(C)(C)C)CC2)cc1`, the AC50 was 14.1 µM [falling, partial curve] under setting [1] and 14.1 µM [falling, partial curve] under setting [2].
As for `COc1ccc(NC2=C(Cl)C(=O)N(CCc3ccccc3)C2=O)c(OC)c1`, under setting [2], the AC50 was 17.8 µM [rising, single point].
`COc1cc(C(=O)Oc2cccc(Nc3ncnc4ccccc34)c2)cc(OC)c1OC`: the AC50 under setting [1] was 3.55 µM [rising, full curve].
For `Cc1ccc(NC(=O)COC(=O)c2csc3c2CCC(C)C3)cc1S(=O)(=O)N1CCCCC1` (stereo not drawn), the concentration at half-maximal activity (AC50) runs as follows: under setting [1], 11.2 µM [rising, partial curve]; under setting [2], 15.8 µM [rising, single point].
Turning to `COc1ccc(N(CC(=O)NCc2ccccc2OC)S(=O)(=O)c2ccccc2[N+](=O)[O-])c(OC)c1`, the half-maximal activity concentration (AC50) under setting [1] is 10 µM [falling, partial curve, poor fit] and the AC50 under setting [2] is 5.62 µM [falling, partial curve, poor fit].
Regarding `CSc1ncc(Cl)c(C(=O)Nc2nnc(SC/C=C/c3ccccc3)s2)n1`, the half-maximal activity concentration (AC50) was 12.6 µM [rising, single point] under setting [1] and 17.8 µM [rising, single point] under setting [2].
As to `CCC1=C(C)CN(C(=O)NCCc2ccc(S(=O)(=O)NC(=O)NC3CCC(C)CC3)cc2)C1=O` (stereo not drawn), the AC50 under setting [1] is 0.224 µM [falling, full curve, poor fit].
For the molecule `CCOC(=O)c1c(-c2ccc(OC)cc2)csc1NC(=O)CSc1ccccc1`, under setting [2], the AC50 was 11.2 µM [rising, single point].
Still for that read-out and setting: as for `O=C(Cc1ccc(-c2ccccc2)cc1)NCCS(=O)(=O)N1CCN(c2ccccc2F)CC1`, the figure is 12.6 µM [rising, partial curve].
Turning to `NS(=O)(=O)c1ccc(NC(=O)COC(=O)CCC2CCCC2)cc1`, the AC50 under setting [1] was 0.708 µM [rising, single point].
Consider `CCOc1ccc2nc(NC3=NC(C)(C)C=C(C)N3)nc(C)c2c1`, for which the AC50 under setting [2] is 35.5 µM [rising, single point].
`CCCC(=O)N1CCN(c2nc(CC(C)C)c3c(c2C#N)CCC3)CC1`: the AC50 was 15.8 µM [rising, single point] under setting [1] and 20 µM [rising, single point] under setting [2].
Consider `CCN(Cc1ccccc1)S(=O)(=O)c1ccc2c(c1)NC(=O)CC(=O)N2`, for which, under setting [2], the AC50 is 1.41 µM [rising, partial curve, poor fit].
`O=C(Nc1ccccc1C(=O)N1CCCCC1)c1nsc2ccccc12`: the AC50 is, setting by setting: under setting [1], 0.631 µM [rising, full curve, poor fit]; under setting [2], 0.794 µM [rising, full curve, poor fit].
Take `CCOC(=O)N1CCC(NC(=O)C2CCC(CNS(=O)(=O)c3ccc(OC)cc3)CC2)CC1` (stereo not drawn): the half-maximal activity concentration (AC50) was 6.31 µM [rising, single point] under setting [1] and 4.47 µM [rising, single point] under setting [2].
Turning to `c1ccc(-c2nc3nonc3c3nc4ccccc4n23)cc1`, the AC50 under setting [2] is 22.4 µM [rising, single point].
`Cc1sc2ncnc(OCC(=O)c3ccc(S(=O)(=O)N4CCCC4)cc3)c2c1C`: the AC50 is, setting by setting: under setting [1], 15.8 µM [rising, partial curve]; under setting [2], 15.8 µM [rising, partial curve].
For `O=C(NC(CO)C(O)c1ccc([N+](=O)[O-])cc1)C(Cl)Cl` (stereo not drawn), under setting [1], the AC50 is 0.000891 µM [falling, full curve, poor fit].
Consider `O=C(/C=C/c1ccco1)OCc1nnc(-c2ccc(Cl)cc2)o1`, for which the AC50 under setting [2] was 28.2 µM [falling, partial curve].
On the same count and under the same terms, as for `O=C(Cn1c(=O)nc(-c2ccccc2)c2cc(Cl)ccc21)NCCc1ccccc1`, the figure is 0.158 µM [falling, full curve, poor fit].
Consider `CC(=O)N/N=C/c1cc2c(cc1[N+](=O)[O-])OCO2`, for which the AC50 under setting [1] is 0.0158 µM [falling, full curve].
Turning to `Nc1ccc(C(=O)Nc2ccc3nc(-c4cccnc4)[nH]c3c2)cc1`, the AC50 under setting [2] was 0.0126 µM [falling, full curve].
In the case of `COc1ccccc1NC(=O)CN(c1ccc(C23CC4CC(CC(C4)C2)C3)cc1)S(C)(=O)=O`, the AC50 by setting is: under setting [1], 7.94 µM [rising, partial curve]; under setting [2], 12.6 µM [rising, partial curve].
For the molecule `CCn1nc([N+](=O)[O-])c2c(-c3nc4ccccc4o3)c(N)n(CCCOC)c2c1=O`, under setting [2], the AC50 was 35.5 µM [falling, single point].
The same measure, in the same setting: the result for `CCOC(=O)c1cc(CC)sc1/N=C/C1=C(O)CC(C)(C)CC1=O` reads 0.501 µM [rising, full curve, poor fit]; that for `Cc1cccc(C(=O)Nc2cccc(C(=O)N/N=C/c3ccncc3)c2)c1`, 35.5 µM [rising, single point]; that for `O=C(Nc1ccc(OCc2ccccc2)cc1)Nc1ccccc1C(=O)NCCCN1CCOCC1`, 11.2 µM [falling, partial curve, poor fit].
The same measure, in the same setting: the result for `CCOc1ccc(NC(=O)Cn2nnc(-c3ccccc3NC(=O)CC)n2)cc1` reads 22.4 µM [rising, single point].
As for `O=C(c1ccccc1)N1CCCC(c2ccc(Cl)cc2)=N1`, the AC50 reads like this: under setting [1], 12.6 µM [rising, single point]; under setting [2], 14.1 µM [rising, single point].
Take `CC(=O)NCCNc1ncncc1-c1ccc(N(C)C)cc1`: the concentration at half-maximal activity (AC50) under setting [1] was 11.2 µM [falling, partial curve] and the AC50 under setting [2] is 14.1 µM [falling, partial curve].
As for `Cc1ccccc1-n1ncc2c(SCC(=O)NCc3cccs3)ncnc21`, the AC50 reads like this: under setting [1], 11.2 µM [falling, partial curve]; under setting [2], 11.2 µM [falling, partial curve].
Turning to `Cc1cc(C(=O)Cn2nnc3ccccc3c2=O)c(C)n1Cc1cccs1`, under setting [2], the half-maximal activity concentration (AC50) was 25.1 µM [rising, single point].
As to `O=[N+]([O-])c1ccc(C=Nc2ccc(Cl)cc2Cl)s1`, the AC50 under setting [1] was 8.91 µM [falling, partial curve] and the AC50 under setting [2] was 7.94 µM [falling, partial curve].
As for `O=C(NCC1CCN(Cc2ccc(F)cc2)CC1)c1cc2ccc3cccnc3c2[nH]1`, the AC50 is, setting by setting: under setting [1], 1.12 µM [falling, full curve]; under setting [2], 0.562 µM [falling, full curve, poor fit].
